Values from PubChem BioAssay AID1259287 (Sanger Institute, 2017).
Test: 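Follow-up of selected drug and gene pairs in HCT15 cells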 (follow-up of hits). Cells: human HCT15 colorectal cancer cells. Knock-down reagent: single siRNA against human genes. Conditions: BYL719 1 µM, cetuximab 5 µg/ml or trametinib 10 nM, or DMSO vehicle. Read-out: 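Survival scaled to control siRNA wells, then a synergy score per drug giving combined effect beyond the expected one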. Scale: synergy score with BYL719 and synergy score with cetuximab and synergy score with trametinib: higher = stronger combined killing than expected. Active means: 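a hit if BYL719, cetuximab or trametinib yields synergy greater than 0.10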. Calls: active = synergy with at least one drug; inactive = no synergy with any drug.
The whole screen tested 160 reagents; this is an unselected part. 19 of all reagents (12%) were called active. 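Viability seems capped at 1; calls apply to HCT15 cells only, not to validation across other lines.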 Reagents against one gene are numbered here. Not all columns of the deposit are shown. Not given: the amount of reagent, the time to read-out.

| gene symbol | siRNA no. | synergy score with BYL719 | synergy score with cetuximab | synergy score with trametinib | Call |
| --- | --- | --- | --- | --- | --- |
| COASY (Coenzyme A synthase) | 1 | -0.117 | -0.0835 | -0.0435 | inactive |
| COASY (Coenzyme A synthase) | 2 | -0.0534 | -0.126 | 0.0498 | inactive |
| COASY (Coenzyme A synthase) | 3 | -0.0606 | -0.00479 | -0.0327 | inactive |
| COASY (Coenzyme A synthase) | 4 | -0.0476 | -0.0753 | -0.00844 | inactive |
| GRK5 (G protein-coupled receptor kinase 5) | 1 | -0.165 | -0.0255 | -0.127 | inactive |
| GRK5 (G protein-coupled receptor kinase 5) | 2 | -0.111 | -0.0844 | -0.163 | inactive |
| GRK5 (G protein-coupled receptor kinase 5) | 3 | -0.0569 | -0.0159 | -0.086 | inactive |
| GRK5 (G protein-coupled receptor kinase 5) | 4 | -0.0865 | -0.0814 | -0.109 | inactive |
| GTF2H1 (general transcription factor IIH subunit 1) | 1 | 0.00165 | 0.0516 | -0.069 | inactive |
| GTF2H1 (general transcription factor IIH subunit 1) | 2 | -0.0426 | -0.191 | -0.246 | inactive |
| GTF2H1 (general transcription factor IIH subunit 1) | 3 | -0.136 | 0.0675 | -0.0194 | inactive |
| GTF2H1 (general transcription factor IIH subunit 1) | 4 | 0.175 | 0.126 | 0.143 | active |
| CHD4 (chromodomain helicase DNA binding protein 4) | 1 | -0.133 | -0.147 | 0.0406 | inactive |
| CHD4 (chromodomain helicase DNA binding protein 4) | 2 | -0.242 | -0.0873 | -0.0198 | inactive |
| CHD4 (chromodomain helicase DNA binding protein 4) | 3 | 0.0339 | -0.0458 | 0.0248 | inactive |
| CHD4 (chromodomain helicase DNA binding protein 4) | 4 | -0.0509 | -0.118 | -0.127 | inactive |
| MARK3 (microtubule affinity regulating kinase 3) | 1 | -0.0302 | -0.0444 | 0.0786 | inactive |
| MARK3 (microtubule affinity regulating kinase 3) | 2 | -0.174 | -0.12 | 0.0127 | inactive |
| MARK3 (microtubule affinity regulating kinase 3) | 3 | -0.127 | -0.113 | -0.181 | inactive |
| MARK3 (microtubule affinity regulating kinase 3) | 4 | -0.00899 | -0.0281 | 0.0943 | inactive |
| KCNH8 (potassium voltage-gated channel subfamily H member 8) | 1 | -0.235 | -0.153 | -0.2 | inactive |
| KCNH8 (potassium voltage-gated channel subfamily H member 8) | 2 | 0.0405 | -0.0699 | 0.0107 | inactive |
| KCNH8 (potassium voltage-gated channel subfamily H member 8) | 3 | -0.0429 | -0.154 | 0.0682 | inactive |
| KCNH8 (potassium voltage-gated channel subfamily H member 8) | 4 | 0.0603 | -0.0294 | 0.109 | active |
| PIM1 (Pim-1 proto-oncogene, serine/threonine kinase) | 1 | 0.031 | 0.101 | 0.0967 | active |
| PIM1 (Pim-1 proto-oncogene, serine/threonine kinase) | 2 | -0.113 | -0.0817 | -0.00236 | inactive |
| PIM1 (Pim-1 proto-oncogene, serine/threonine kinase) | 3 | -0.261 | -0.152 | -0.31 | inactive |
| PIM1 (Pim-1 proto-oncogene, serine/threonine kinase) | 4 | -0.105 | -0.186 | -0.139 | inactive |
| PLK1 (polo like kinase 1) | 1 | -0.0336 | 0.00101 | 0.00447 | inactive |
| PLK1 (polo like kinase 1) | 2 | -0.0863 | -0.0378 | -0.056 | inactive |
| PLK1 (polo like kinase 1) | 3 | -0.0133 | -0.0687 | 0.0192 | inactive |
| PLK1 (polo like kinase 1) | 4 | -0.0745 | -0.139 | -0.0627 | inactive |
| PFKFB3 (6-phosphofructo-2-kinase/fructose-2,6-biphosphatase 3) | 1 | -0.0543 | -0.0222 | -0.0384 | inactive |
| PFKFB3 (6-phosphofructo-2-kinase/fructose-2,6-biphosphatase 3) | 2 | -0.00456 | -0.132 | -0.0383 | inactive |
| PFKFB3 (6-phosphofructo-2-kinase/fructose-2,6-biphosphatase 3) | 3 | -0.0811 | -0.107 | -0.208 | inactive |
| PFKFB3 (6-phosphofructo-2-kinase/fructose-2,6-biphosphatase 3) | 4 | 0.018 | -0.179 | 0.0428 | inactive |
| BRAF (B-Raf proto-oncogene, serine/threonine kinase) | 1 | -0.00394 | -0.0286 | -0.139 | inactive |
| BRAF (B-Raf proto-oncogene, serine/threonine kinase) | 2 | 0.0228 | -0.13 | 0.055 | inactive |
| BRAF (B-Raf proto-oncogene, serine/threonine kinase) | 3 | -0.0077 | 0.042 | -0.0243 | inactive |
| BRAF (B-Raf proto-oncogene, serine/threonine kinase) | 4 | -0.0171 | -0.174 | -0.0557 | inactive |

Only “synergy score with BYL719”, for 4 of the entries above:
PFKFB3 (6-phosphofructo-2-kinase/fructose-2,6-biphosphatase 3) #4	0.018
BRAF (B-Raf proto-oncogene, serine/threonine kinase) #1	-0.00394
BRAF (B-Raf proto-oncogene, serine/threonine kinase) #2	0.0228
BRAF (B-Raf proto-oncogene, serine/threonine kinase) #3	-0.0077
